Publication PMC6280245
These are yes or no findings as the source states them, for the method shown. In cells and extracts the contact can be indirect. Here binding means that the protein was enriched with, or labelled near, the bait; the list need not be complete.

B1: Nucleosome assembly protein 1-like 1 (mouse) (protein, UniProt P28656 1-391)
chain: MADIDNKEQSELDQDLEDVEEVEEEETGEETKIKARQLTVQMMQNPQILAALQERLDGLVDTPTGYIESLPKVVKRRVNALKNLQVKCAQIEAKFYEEVHDLERKYAVLYQPLFDKRFEIINAIYEPTEEECEWKPDEEDEVSEELKEKAKIEDEKKDEEKEDPKGIPEFWLTVFKNVDLLSDMVQEHDEPILKHLKDIKVKFSDAGQPMSFVLEFHFEPNDYFTNEVLTKTYRMRSEPDDSDPFSFDGPEIMGCTGCQIDWKKGKNVTLKTIKKKQKHKGRGTVRTVTKTVSNDSFFNFFAPPEVPENGDLDDDAEAILAADFEIGHFLRERIIPRSVLYFTGEAIEDDDDDYDEEGEEADEEGEEEGDEENDPDYDPKKDQNPAECKQQ
B2: Xaa-Pro dipeptidase (mouse) (protein, UniProt Q11136 1-493)
chain: MASTVRPSFSLGNETLKVPLALFALNRQRLCERLRKNGAVQAASAVVLQGGEEMQRYCTDTSIIFRQESFFHWAFGVVESGCYGVIDVDTGKSTLFVPRLPDSYATWMGKIHSKEYFKEKYAVDDVQYTDEIASVLTSRNPSVLLTLRGVNTDSGSVCREASFEGISKFNVNNTILHPEIVECRVFKTDMELEVLRYTNRISSEAHREVMKAVKVGMKEYEMESLFQHYCYSRGGMRHTSYTCICCSGENAAVLHYGHAGAPNDRTIKDGDICLFDMGGEYYCFASDITCSFPANGKFTEDQKAIYEAVLRSCRTVMSTMKPGVWWPDMHRLADRIHLEELARIGLLSGSVDAMLQVHLGAVFMPHGLGHFLGLDVHDVGGYPEGVERIDEPGLRSLRTARHLEPGMVLTVEPGIYFIDHLLDQALADPAQACFFNQEVLQRFRNFGGVRIEEDVVVTDSGMELLTCVPRTVEEIEACMAGCDKASVPFSGQK
B3: Serine/threonine-protein phosphatase 5 (mouse) (protein, UniProt Q60676 1-499)
chain: MAMAEGERTECAETPRDEPPADGTLKRAEELKTQANDYFKAKDYENAIKFYSQAIELNPGNAIYYGNRSLAYLRTECYGYALGDATRAIELDKKYIKGYYRRAASNMALGKFRAALRDYETVVKVKPNDKDAKMKYQECSKIVKQKAFERAIAGDEHRRSVVDSLDIESMTIEDEYSGPKLEDGKVTITFMKDLMQWYKDQKKLHRKCAYQILVQVKEVLCKLSTLVETTLKETEKITVCGDTHGQFYDLLNIFELNGLPSETNPYIFNGDFVDRGSFSVEVILTLFGFKLLYPDHFHLLRGNHETDNMNQIYGFEGEVKAKYTAQMYELFSEVFEWLPLAQCINGKVLIMHGGLFSEDGVTLDDIRKIERNRQPPDSGPMCDLLWSDPQPQNGRSVSKRGVSCQFGPDVTKAFLEENQLDYIIRSHEVKAEGYEVAHGGRCVTVFSAPNYCDQMGNKASYIHLQGSDLRPQFHQFTAVPHPNVKPMAYANTLLQLGMM
B4: Peroxiredoxin-1 (mouse) (protein, UniProt P35700 1-199)
chain: MSSGNAKIGYPAPNFKATAVMPDGQFKDISLSEYKGKYVVFFFYPLDFTFVCPTEIIAFSDRADEFKKLNCQVIGASVDSHFCHLAWINTPKKQGGLGPMNIPLISDPKRTIAQDYGVLKADEGISFRGLFIIDDKGILRQITINDLPVGRSVDEIIRLVQAFQFTDKHGEVCPAGWKPGSDTIKPDVNKSKEYFSKQK
B5: Ran-binding protein 3 (mouse) (protein, UniProt Q9CT10 1-491)
chain: MADLANEEKPAVAPSVFVFQKDKGQKRSAGSSSPEAGEDSDHEDGNYCPPVKRERTSSLTHSEEKSSGFRLKPPTLIHGQAPSAGLPSQKPREQQRGVLRPAVLQAPQPKVLSQTVPSSGTNGVSMPADCTGPATSVSPENLTQRSPSESAEETHTLEEKVPQKTPHGTSEEGHCEEEQAAPQAFVFGQNLRDRVKLMNENASVADVDSAAHPSSETPSATNYFLQYISSSADNATHSADNSTKFVFGQNMSERVLSPPKLNEANSDTSRETTHAQSGSESSSQEAAPKKESLAESAAAYTKATAWTCLLEKVEVITGEEAESNVLQIQCKLFVFDKTSQSWVERGRGLLRLNDMASTDDGTLQSRLVMRTQGSLRLILNTKLWAQMQMDKASEKSIRITATDAEDQGVKVFLISASSKDTGQLYAALHHRILALRSRAEQEQEAKAPPPEPGATRATEEEDSDEDAVLAPSGVTGAGTGDEGDGQAPGST
B6: Arginine-tRNA ligase, cytoplasmic (mouse) (protein, UniProt Q9D0I9 1-660)
chain: MDGLVAQCSARLLQQEREIKALTAEIDRLKNCGCLEASPSLEQLREENLKLKYRLNILRRSLQEERRKPTKNMININSRLQEVFGCAIRAAYPDLENPPLIVTPSQQPKFGDYQCNSAMGISQMLKAKEQKVSPREIAENITKHLPNNKYIDKVEIAGPGFINVHLRKDFVSEQLTSLLVNGVQLPVLGDKEKVIVDFSSPNIAKEMHVGHLRSTIIGESMSRLFEFAGYDVLRLNHVGDWGTQFGMLIAHLQDKFPDYLTVSPPIGDLQAFYKESKKRFDADEEFKKRAYQCVVLLQSKNPDIMKAWNLICDVSREEFKKIYDALDITLIERGESFYQDRMKDIVKEFEDKGFVQVDDGRKIVFVPGCSVPLTIVKSDGGYTYDTSDLAAIKQRLFEEKANKIIYVVDNGQAIHFQTIFAAAQMIGWYDPKVTLVTHVGFGVVLGEDKKKFKTRSGETVRLMDLLEEGLKRSMDKLKEKERDKVLTEEELKAAQTSVAYGCIKYADLSHNRLNDYIFSFDKMLDDRGNTAAYLLYAFTRIRSIARLANIDEAMLQRAARETKIILDHEKEWKLGRCILRFPEILQKILDDLFLHTLCDYIYELATTFTEFYDSCYCVEKDRQTGKVLKVNMWRMLLCEAVAAVMAKGFDILGIKPVQRM
B7: Septin-7 (mouse) (protein, UniProt O55131 1-436)
chain: MSVSARSAAAEERSVNCGTMAQPKNLEGYVGFANLPNQVYRKSVKRGFEFTLMVVGESGLGKSTLINSLFLTDLYSPEYPGPSHRIKKTVQVEQSKVLIKEGGVQLLLTIVDTPGFGDAVDNSNCWQPVIDYIDSKFEDYLNAESRVNRRQMPDNRVQCCLYFIAPSGHGLKPLDIEFMKRLHEKVNIIPLIAKADTLTPEECQQFKKQIMKEIQEHKIKIYEFPETDDEEENKLVKKIKDRLPLAVVGSNTIIEVNGKRVRGRQYPWGVAEVENGEHCDFTILRNMLIRTHMQDLKDVTNNVHYENYRSRKLAAVTYNGVDNNKNKGQLTKSPLAQMEEERREHVAKMKKMEMEMEQVFEMKVKEKVQKLKDSEAELQRRHEQMKKNLEAQHKELEEKRRQFEEEKANWEAQQRILEQQNSSRTLEKNKKKGKIF
B8: Thioredoxin reductase 1, cytoplasmic (mouse) (protein, UniProt Q9JMH6 1-613)
chain: MPVDDCWLYFPASRGRTFVQTVWVAPTCPNCCWFPGFLPPVPRPPHVPRVLLRGPRGAVLPASRPSKTLPSSSQTPCPTDPCICPPPSTPDSRQEKNTQSELPNKKGQLQKLPTMNGSKDPPGSYDFDLIIIGGGSGGLAAAKEAAKFDKKVLVLDFVTPTPLGTRWGLGGTCVNVGCIPKKLMHQAALLGQALKDSRNYGWKVEDTVKHDWEKMTESVQSHIGSLNWGYRVALREKKVVYENAYGRFIGPHRIVATNNKGKEKIYSAERFLIATGERPRYLGIPGDKEYCISSDDLFSLPYCPGKTLVVGASYVALECAGFLAGIGLDVTVMVRSILLRGFDQDMANKIGEHMEEHGIKFIRQFVPTKIEQIEAGTPGRLRVTAQSTNSEETIEGEFNTVLLAVGRDSCTRTIGLETVGVKINEKTGKIPVTDEEQTNVPYIYAIGDILEGKLELTPVAIQAGRLLAQRLYGGSNVKCDYDNVPTTVFTPLEYGCCGLSEEKAVEKFGEENIEVYHSFFWPLEWTVPSRDNNKCYAKIICNLKDDERVVGFHVLGPNAGEVTQGFAAALKCGLTKQQLDSTIGIHPVCAEIFTTLSVTKRSGGDILQSGCUG
B9: Synaptic vesicle membrane protein VAT-1 homolog (mouse) (protein, UniProt Q62465 1-406)
chain: MSAEREAAEAATVAAATEAGAETGTGAGEGAPSQPPTVEVASDPQPPPAPEASASASAPPLRCLVLTGFGGYDKVKLQSRPAVPPAPGPGQLTLRVRACGLNFADLMGRQGLYDRLPPLPVTPGMEGAGVVVAVGEGVGDRKAGDRVMVLNRSGMWQEEVTVPSAQTFLMPEAMTFEEAAALLVNYITAYMVLFDFGNLRPGHSVLVHMAAGGVGMAALQLCRTVENVTVFGTASASKHEVLKENGVTHPIDYHTTDYVDEIKKISPKGVDIVMDPLGGSDTAKGYHLLKPMGKVVTYGMANLLTGPKRNLMAMARTWWNQFSVTALQLLQANRAVCGFHLGYLDGEVELVNSVVTRLVALYNQGHIKPRIDSVWPFEKVADAMKQMQEKKNIGKVLLVPGPEKET

Target: T1, mouse Nucleoredoxin Cys208Ser (mouse) (UniProt P97346)
T1 sequence: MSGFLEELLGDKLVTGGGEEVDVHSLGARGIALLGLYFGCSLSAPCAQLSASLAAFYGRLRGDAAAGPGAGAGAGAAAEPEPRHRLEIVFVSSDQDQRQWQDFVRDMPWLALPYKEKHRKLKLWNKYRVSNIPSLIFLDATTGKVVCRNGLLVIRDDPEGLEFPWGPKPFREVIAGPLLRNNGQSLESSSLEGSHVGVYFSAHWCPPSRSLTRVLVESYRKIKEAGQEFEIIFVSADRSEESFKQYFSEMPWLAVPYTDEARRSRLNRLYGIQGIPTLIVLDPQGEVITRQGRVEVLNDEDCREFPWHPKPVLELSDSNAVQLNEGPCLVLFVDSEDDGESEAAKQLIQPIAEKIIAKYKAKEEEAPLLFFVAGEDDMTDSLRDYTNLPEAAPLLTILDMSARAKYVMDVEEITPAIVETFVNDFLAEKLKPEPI
Test: affinity purification with mass spectrometry; intermediate trapping: mNrx Cys208Ser coupled to CNBr-activated sepharose and reduced with 10 mM DTT; mouse brain extract (Black 6 C57J mice, NP40 lysis buffer) 2 h at 4°C; washed with 100 mM Tris, 300 mM NaCl, pH 8 and TE buffer; trapped proteins (mixed disulfide) eluted with 10 mM DTT and 10 mM TCEP; only the target purified

binding, binds:
B1
B2
B3
B4
B5
B6
B7
B8
B9
